Measured data: PubChem BioAssay AID504774 (Drosophila RNAi Screening Center, 2011)

- Assay: 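Genes required for cells to withstand methyl methanesulphonate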 (primary screen)
- System: Drosophila Kc167 cells
- Knock-down reagent: long dsRNA against Drosophila genes, about 0.25 µg dsRNA per well
- Timing: about 6 days: 3 days knock-down, then 3 days with or without MMS
- Treatment: methyl methanesulphonate 0.004% (w/v) for 3 days after knock-down
- Read-out: 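ATP-dependent luminescence as a measure of live cells in MMS-exposed wells, quantile normalised within each plate, with replicate values also given as a mean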
- Scale: mean viability with MMS and viability with MMS: higher = more surviving cells after MMS
In all, the deposit lists about 23,000 reagents; this is an unselected part of those that have a named target and a result. 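Values are quantile-normalised luminescence on an arbitrary scale; higher means more cells surviving MMS.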 The numbers tell different reagents against one gene apart. Names joined by + are all predicted targets of the reagent. Not all columns of the deposit are shown. Reagent sequences are not shown.

CG7840 showed mean viability with MMS 3.74e6; viability with MMS, replicate 1 = 4.36e6.
Or67a (Odorant receptor 67a) scored mean viability with MMS 3.80e6; viability with MMS, replicate 1 = 4.27e6.
Depletion of CG1113 came out at: mean viability with MMS 3.38e6; viability with MMS, replicate 1 = 3.89e6.
After knock-down of CG4793, the screen gave mean viability with MMS 3.54e6; viability with MMS, replicate 1 = 4.04e6.
Against tilB (touch insensitive larva B) the deposit lists mean viability with MMS 3.52e6; viability with MMS, replicate 1 = 4.11e6.
For CG5050, the values are mean viability with MMS 3.49e6; viability with MMS, replicate 1 = 4.00e6.
Depletion of Dscam4 (Down syndrome cell adhesion molecule 4) #1 resulted in: mean viability with MMS 3.56e6; viability with MMS, replicate 1 = 4.03e6.
For Dscam4 (Down syndrome cell adhesion molecule 4) #2, the values are mean viability with MMS 3.73e6; viability with MMS, replicate 1 = 4.24e6.
After knock-down of Dscam4 (Down syndrome cell adhesion molecule 4) #3 the results were mean viability with MMS 3.65e6; viability with MMS, replicate 1 = 3.97e6.
Against Dscam4 (Down syndrome cell adhesion molecule 4) #4 the deposit lists mean viability with MMS 3.31e6; viability with MMS, replicate 1 = 3.65e6.
Dscam4 (Down syndrome cell adhesion molecule 4) #5 scored mean viability with MMS 3.84e6; viability with MMS, replicate 1 = 4.12e6.
Knock-down of CG3348 resulted in: mean viability with MMS 3.49e6; viability with MMS, replicate 1 = 3.91e6.
Against KaiR1D (Kainate-type ionotropic glutamate receptor subunit 1D), the entry reads mean viability with MMS 3.49e6; viability with MMS, replicate 1 = 4.00e6.
With knock-down of CG14105, the screen gave mean viability with MMS 3.55e6; viability with MMS, replicate 1 = 3.96e6.
After knock-down of cpo (couch potato), the record shows mean viability with MMS 3.67e6; viability with MMS, replicate 1 = 4.13e6.
With knock-down of mRpL42 (mitochondrial ribosomal protein L42) the results were mean viability with MMS 3.62e6; viability with MMS, replicate 1 = 4.07e6.
With knock-down of sgl (sugarless), the screen gave mean viability with MMS 3.62e6; viability with MMS, replicate 1 = 4.09e6.
Depletion of Ccdc85 #1 came out at: mean viability with MMS 2.86e6; viability with MMS, replicate 1 = 3.25e6.
Depletion of Ccdc85 #2 gave: mean viability with MMS 3.59e6; viability with MMS, replicate 1 = 4.07e6.

Reformatted: entries from further up
sgl (sugarless)
- mean viability with MMS: 3.62e6
- viability with MMS, replicate 1: 4.09e6

Ccdc85 #1
- mean viability with MMS: 2.86e6
- viability with MMS, replicate 1: 3.25e6

Further reagents follow:
With knock-down of SP1173 the results were mean viability with MMS 3.61e6; viability with MMS, replicate 1 = 4.21e6.
After knock-down of Cnb (Centrobin), the screen gave mean viability with MMS 3.48e6; viability with MMS, replicate 1 = 3.88e6.
Cyp316a1 (Cytochrome P450 316a1) scored mean viability with MMS 3.54e6; viability with MMS, replicate 1 = 4.01e6.
After knock-down of CG34229, the record shows mean viability with MMS 3.54e6; viability with MMS, replicate 1 = 3.85e6.
Against topi (matotopetli), the entry reads mean viability with MMS 3.50e6; viability with MMS, replicate 1 = 4.02e6.
After knock-down of PpD6 (Protein phosphatase D6) #1, the record shows mean viability with MMS 3.55e6; viability with MMS, replicate 1 = 4.07e6.
PpD6 (Protein phosphatase D6) #2 scored mean viability with MMS 3.64e6; viability with MMS, replicate 1 = 4.12e6.
After knock-down of Sxl + CG14425 (retired record) #1, the record shows mean viability with MMS 3.44e6; viability with MMS, replicate 1 = 3.98e6.
For Sxl + CG14425 (retired record) #2 the deposit lists mean viability with MMS 3.58e6; viability with MMS, replicate 1 = 4.13e6.
Sxl + CG14425 (retired record) #3 showed mean viability with MMS 3.30e6; viability with MMS, replicate 1 = 3.82e6.
Knock-down of CG9300 resulted in: mean viability with MMS 3.44e6; viability with MMS, replicate 1 = 3.85e6.
With knock-down of spd-2 (spindle defective 2), the record shows mean viability with MMS 3.38e6; viability with MMS, replicate 1 = 3.77e6.
Silencing of St3 (Sulfotransferase 3) came out at: mean viability with MMS 3.63e6; viability with MMS, replicate 1 = 3.92e6.
Silencing of CG16704 gave: mean viability with MMS 3.71e6; viability with MMS, replicate 1 = 4.19e6.
Silencing of Or59b (Odorant receptor 59b) came out at: mean viability with MMS 3.55e6; viability with MMS, replicate 1 = 3.90e6.
Depletion of CG5969 came out at: mean viability with MMS 3.48e6; viability with MMS, replicate 1 = 3.92e6.
